Assay results published in patent US20050214412A1, “APPARATUS AND METHOD FOR DELIVERING NUTRITIONAL SUPPLEMENTS WITH BEVERAGE SWEETENERS” (priority 2004, published 2005).

Test: Taste tests of aqueous solutions
Settings: about 1 g of each component in 20 mL water, a couple drops on the tongue

O=C1O[C@H]([C@@H](O)CO)C(O)=C1O [Vit. C, ascorbic acid]
Taste Description: Sour, dissipates quickly, no aftertaste
Taste Description (listed as Vitamin C): sour taste
